This passage reports melting temperature shift results from the supplement of paper PMC10060354, “Discovery of a small molecule ligand of FRS2 that inhibits invasion and tumor growth” (Cellular Oncology, 2022).

Sequences of proteins named here, by UniProt entry; tags and fusion partners are left off. A change or cut given only in a name is not applied to a line headed by its entry.
UniProt P57076: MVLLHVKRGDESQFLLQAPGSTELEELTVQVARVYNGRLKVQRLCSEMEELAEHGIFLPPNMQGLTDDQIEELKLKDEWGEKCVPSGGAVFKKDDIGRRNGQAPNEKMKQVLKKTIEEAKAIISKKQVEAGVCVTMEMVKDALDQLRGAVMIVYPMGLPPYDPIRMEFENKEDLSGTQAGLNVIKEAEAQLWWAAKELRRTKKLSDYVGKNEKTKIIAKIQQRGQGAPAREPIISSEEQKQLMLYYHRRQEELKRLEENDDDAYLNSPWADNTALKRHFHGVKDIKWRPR
UniProt P05455: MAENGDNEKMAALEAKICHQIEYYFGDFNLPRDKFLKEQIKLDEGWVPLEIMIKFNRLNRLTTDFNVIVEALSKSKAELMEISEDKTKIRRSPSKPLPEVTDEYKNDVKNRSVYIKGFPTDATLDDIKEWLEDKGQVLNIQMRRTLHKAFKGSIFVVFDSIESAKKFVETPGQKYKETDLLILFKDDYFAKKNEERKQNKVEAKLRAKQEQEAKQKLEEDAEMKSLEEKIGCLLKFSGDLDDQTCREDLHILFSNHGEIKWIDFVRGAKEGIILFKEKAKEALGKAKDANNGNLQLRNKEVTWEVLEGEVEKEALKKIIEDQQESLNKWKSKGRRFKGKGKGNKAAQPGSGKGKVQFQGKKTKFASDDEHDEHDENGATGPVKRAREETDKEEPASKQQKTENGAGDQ
UniProt Q15669: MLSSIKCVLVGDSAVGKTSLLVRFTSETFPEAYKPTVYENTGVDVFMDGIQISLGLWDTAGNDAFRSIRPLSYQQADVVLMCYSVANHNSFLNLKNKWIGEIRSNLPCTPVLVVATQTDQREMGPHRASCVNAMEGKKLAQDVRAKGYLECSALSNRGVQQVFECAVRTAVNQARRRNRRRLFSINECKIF
UniProt Q8WUB8: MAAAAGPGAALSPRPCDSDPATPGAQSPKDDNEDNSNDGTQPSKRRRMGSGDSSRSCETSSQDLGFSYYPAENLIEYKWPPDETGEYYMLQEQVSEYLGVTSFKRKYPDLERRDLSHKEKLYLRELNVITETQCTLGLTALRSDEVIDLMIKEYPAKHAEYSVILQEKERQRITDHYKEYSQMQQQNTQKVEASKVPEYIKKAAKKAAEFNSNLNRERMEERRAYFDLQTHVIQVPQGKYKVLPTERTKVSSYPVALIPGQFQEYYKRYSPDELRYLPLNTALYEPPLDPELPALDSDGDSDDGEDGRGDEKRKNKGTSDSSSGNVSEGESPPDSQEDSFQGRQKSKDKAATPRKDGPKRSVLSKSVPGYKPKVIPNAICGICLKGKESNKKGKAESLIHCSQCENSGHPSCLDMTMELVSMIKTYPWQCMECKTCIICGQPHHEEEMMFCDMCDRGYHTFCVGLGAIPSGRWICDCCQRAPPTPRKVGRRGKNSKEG
UniProt Q9H0C8: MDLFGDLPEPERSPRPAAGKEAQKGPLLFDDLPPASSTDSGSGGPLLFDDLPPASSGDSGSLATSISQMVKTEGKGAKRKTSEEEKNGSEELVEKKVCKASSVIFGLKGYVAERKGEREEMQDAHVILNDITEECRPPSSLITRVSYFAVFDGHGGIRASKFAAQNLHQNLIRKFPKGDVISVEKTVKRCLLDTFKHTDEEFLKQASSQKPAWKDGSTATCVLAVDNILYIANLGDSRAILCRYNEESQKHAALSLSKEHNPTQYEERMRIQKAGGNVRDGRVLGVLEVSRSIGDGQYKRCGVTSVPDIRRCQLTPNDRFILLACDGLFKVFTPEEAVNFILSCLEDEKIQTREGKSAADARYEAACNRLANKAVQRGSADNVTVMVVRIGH
UniProt P30520: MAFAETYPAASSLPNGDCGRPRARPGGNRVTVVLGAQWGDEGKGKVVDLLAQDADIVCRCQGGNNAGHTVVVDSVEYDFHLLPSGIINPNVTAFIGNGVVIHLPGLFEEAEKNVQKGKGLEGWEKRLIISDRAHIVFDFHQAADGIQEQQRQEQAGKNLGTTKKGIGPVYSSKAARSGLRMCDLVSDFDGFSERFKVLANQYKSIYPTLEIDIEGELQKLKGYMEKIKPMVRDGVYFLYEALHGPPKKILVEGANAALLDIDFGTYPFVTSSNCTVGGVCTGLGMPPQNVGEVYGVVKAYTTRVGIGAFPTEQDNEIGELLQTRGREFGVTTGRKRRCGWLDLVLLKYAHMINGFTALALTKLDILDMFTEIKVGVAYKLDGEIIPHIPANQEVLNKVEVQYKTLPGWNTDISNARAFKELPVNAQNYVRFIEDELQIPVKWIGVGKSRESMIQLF
UniProt Q86X95: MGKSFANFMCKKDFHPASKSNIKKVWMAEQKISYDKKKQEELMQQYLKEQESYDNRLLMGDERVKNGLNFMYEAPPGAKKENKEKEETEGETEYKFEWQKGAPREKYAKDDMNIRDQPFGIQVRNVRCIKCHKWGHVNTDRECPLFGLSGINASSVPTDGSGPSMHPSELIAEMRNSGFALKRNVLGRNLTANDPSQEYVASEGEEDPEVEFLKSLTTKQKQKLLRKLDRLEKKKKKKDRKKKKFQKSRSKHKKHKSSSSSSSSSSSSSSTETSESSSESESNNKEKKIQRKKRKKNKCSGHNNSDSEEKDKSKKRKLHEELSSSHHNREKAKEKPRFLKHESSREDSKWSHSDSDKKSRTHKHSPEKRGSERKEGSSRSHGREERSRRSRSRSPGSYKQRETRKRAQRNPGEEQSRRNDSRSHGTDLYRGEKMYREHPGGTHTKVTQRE
UniProt O75362: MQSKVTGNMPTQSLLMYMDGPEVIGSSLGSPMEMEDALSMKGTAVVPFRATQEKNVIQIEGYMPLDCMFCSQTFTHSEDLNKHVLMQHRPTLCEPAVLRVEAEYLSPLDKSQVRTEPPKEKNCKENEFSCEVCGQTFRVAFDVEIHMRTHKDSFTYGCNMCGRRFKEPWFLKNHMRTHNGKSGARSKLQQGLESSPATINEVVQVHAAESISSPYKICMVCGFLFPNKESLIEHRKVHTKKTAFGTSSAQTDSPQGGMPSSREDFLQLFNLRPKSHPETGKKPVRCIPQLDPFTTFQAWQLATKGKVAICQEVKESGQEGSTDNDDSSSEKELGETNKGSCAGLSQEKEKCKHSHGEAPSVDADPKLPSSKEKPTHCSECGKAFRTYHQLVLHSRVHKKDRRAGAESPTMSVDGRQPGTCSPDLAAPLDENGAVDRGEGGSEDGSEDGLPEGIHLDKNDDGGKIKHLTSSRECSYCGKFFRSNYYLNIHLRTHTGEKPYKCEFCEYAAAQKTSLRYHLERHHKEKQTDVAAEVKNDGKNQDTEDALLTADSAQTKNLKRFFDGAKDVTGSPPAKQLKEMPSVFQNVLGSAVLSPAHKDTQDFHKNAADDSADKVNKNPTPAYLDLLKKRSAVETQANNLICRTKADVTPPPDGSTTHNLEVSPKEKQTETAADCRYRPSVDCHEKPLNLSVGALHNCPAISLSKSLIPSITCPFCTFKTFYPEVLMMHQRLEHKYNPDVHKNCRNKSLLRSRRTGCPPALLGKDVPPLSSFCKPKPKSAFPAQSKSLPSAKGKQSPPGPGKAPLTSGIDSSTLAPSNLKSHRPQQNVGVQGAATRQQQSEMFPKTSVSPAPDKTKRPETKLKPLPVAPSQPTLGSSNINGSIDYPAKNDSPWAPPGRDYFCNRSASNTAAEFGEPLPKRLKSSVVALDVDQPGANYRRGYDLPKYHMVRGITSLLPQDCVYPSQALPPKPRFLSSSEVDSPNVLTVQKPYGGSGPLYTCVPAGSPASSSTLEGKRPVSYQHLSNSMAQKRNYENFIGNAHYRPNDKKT
UniProt Q99618: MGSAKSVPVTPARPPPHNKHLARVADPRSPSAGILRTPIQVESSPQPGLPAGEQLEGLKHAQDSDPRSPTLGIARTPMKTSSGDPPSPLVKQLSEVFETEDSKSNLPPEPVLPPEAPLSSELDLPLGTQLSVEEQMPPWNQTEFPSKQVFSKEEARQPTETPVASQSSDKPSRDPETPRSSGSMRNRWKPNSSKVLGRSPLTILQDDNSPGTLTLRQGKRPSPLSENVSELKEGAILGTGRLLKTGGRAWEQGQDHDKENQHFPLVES
UniProt Q16181: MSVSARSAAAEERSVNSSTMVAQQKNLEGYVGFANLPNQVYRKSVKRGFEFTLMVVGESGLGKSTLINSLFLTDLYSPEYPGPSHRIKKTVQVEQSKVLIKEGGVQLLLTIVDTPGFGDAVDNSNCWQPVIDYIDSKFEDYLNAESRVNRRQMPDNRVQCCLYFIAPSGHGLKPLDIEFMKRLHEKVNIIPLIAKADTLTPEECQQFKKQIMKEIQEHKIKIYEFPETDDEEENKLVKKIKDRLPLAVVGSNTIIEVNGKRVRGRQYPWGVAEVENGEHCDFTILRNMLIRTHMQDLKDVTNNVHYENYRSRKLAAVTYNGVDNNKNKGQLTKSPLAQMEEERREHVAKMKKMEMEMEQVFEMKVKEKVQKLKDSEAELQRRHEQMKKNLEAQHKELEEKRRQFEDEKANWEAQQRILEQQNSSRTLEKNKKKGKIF
UniProt O43592: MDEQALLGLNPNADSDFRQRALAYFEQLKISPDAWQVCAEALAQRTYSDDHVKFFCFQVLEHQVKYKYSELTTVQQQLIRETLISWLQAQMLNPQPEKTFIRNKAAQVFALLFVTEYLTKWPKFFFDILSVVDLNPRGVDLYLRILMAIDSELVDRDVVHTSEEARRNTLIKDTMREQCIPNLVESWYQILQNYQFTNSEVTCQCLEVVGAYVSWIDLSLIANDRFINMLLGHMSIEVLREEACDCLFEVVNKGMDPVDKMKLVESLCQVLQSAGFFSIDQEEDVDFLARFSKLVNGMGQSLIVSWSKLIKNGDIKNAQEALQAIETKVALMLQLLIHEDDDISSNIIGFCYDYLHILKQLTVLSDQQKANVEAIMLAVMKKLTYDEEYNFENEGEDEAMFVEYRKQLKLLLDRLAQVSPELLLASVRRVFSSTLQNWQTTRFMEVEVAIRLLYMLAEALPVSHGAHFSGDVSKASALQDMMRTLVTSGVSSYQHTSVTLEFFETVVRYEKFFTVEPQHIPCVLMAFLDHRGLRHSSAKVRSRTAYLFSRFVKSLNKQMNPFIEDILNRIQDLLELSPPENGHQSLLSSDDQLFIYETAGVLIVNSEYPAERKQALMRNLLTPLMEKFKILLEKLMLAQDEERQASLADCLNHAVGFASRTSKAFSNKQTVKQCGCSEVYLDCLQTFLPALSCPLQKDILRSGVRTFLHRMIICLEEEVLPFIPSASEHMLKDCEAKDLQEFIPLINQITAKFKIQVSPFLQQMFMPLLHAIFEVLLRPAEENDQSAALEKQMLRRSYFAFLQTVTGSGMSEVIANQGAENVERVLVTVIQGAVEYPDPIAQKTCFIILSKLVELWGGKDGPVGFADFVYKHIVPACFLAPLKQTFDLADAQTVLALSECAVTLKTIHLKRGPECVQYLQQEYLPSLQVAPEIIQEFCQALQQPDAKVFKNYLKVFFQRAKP
UniProt P36406: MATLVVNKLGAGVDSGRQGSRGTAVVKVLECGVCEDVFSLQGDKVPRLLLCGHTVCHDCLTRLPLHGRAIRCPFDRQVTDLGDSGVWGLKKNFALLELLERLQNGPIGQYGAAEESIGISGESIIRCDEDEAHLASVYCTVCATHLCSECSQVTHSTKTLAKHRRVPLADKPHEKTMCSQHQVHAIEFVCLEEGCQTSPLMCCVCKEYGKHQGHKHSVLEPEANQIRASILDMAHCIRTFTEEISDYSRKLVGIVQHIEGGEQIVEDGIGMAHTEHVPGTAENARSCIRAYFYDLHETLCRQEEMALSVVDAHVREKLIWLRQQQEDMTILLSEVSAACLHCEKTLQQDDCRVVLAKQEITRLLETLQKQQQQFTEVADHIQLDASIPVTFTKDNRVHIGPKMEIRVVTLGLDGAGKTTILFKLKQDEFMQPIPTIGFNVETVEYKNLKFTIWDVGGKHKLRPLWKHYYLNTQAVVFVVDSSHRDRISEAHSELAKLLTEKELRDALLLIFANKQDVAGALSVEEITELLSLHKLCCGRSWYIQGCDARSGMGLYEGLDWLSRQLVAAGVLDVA
UniProt Q8TDN6: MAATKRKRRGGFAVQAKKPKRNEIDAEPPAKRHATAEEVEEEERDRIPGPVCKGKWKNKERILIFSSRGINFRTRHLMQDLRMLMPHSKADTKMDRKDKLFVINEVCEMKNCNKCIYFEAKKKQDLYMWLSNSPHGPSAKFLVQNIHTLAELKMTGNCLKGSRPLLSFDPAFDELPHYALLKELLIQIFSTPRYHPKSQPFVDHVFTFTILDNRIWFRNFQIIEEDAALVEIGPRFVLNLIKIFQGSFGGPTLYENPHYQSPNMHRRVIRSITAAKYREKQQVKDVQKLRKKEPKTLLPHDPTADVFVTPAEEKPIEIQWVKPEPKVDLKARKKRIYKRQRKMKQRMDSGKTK
UniProt Q6Y1H2: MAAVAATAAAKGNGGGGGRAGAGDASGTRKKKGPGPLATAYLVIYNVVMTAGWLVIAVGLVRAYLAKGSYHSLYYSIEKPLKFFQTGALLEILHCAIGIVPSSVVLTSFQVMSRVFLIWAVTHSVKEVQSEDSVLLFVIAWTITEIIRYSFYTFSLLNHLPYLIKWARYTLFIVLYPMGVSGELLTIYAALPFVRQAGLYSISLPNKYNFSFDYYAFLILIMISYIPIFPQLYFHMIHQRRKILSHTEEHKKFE

Compound in the test: [O-][N+](C(C1=C(C(O)=C2)NC(C(C=C3)=CC=C3Cl)C4C1C=CC4)=C2Cl)=O
Description: melting temperature shift (compound 7 minus DMSO); higher = compound stabilises the protein. The settings on record: 10 µM. As to the method: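 Thermal proteome profiling (TMT mass spectrometry) in intact DAOY medulloblastoma cells or DAOY lysates treated with 10 µM compound 7 or DMSO, heated at 10 temperatures from 40.5 to 73.8 °C for 3 min. Melting curves were fitted with the Bioconductor TPP package, and the melting point difference between compound and vehicle is reported per protein (single curve per condition).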

Where [1] appears, read: system: DAOY cell lysate, treatment time: 20 min, 4 °C.
[2] abbreviates: system: intact DAOY cells, treatment time: 90 min, 37 °C.

Many values rest on one well or one pass, so single values are uncertain.

Turning to C21ORF59 (UniProt P57076), the melting temperature shift by setting is: under setting [1], -0.33 °C; under setting [2], 1.2 °C.
For INPP5A (UniProt Q14642), under setting [1], the melting temperature shift worked out at 2.09 °C.
For UniProt Q7L311, the melting temperature shift runs as follows: under setting [1], -2.77 °C; under setting [2], 3.49 °C.
The corresponding values for SSB (UniProt P05455) are -0.12 °C and 0.0869 °C.
For the target UniProt Q15669, under setting [2], the melting temperature shift came out at 0.196 °C.
RAI14 (UniProt Q9P0K7): the melting temperature shift is -0.697 °C under setting [1] and 0.577 °C under setting [2].
In the case of PHF10 (UniProt Q8WUB8), under setting [1], the melting temperature shift is -1.04 °C.
On to UniProt Q9NQ39, for which the melting temperature shift under setting [2] was -0.301 °C.
In the case of GPD1L (UniProt Q8N335), the melting temperature shift reads like this: under setting [1], -0.205 °C; under setting [2], 1.42 °C.
Take ILKAP (UniProt Q9H0C8): the melting temperature shift under setting [1] was -0.786 °C and the melting temperature shift under setting [2] was -0.0824 °C.
The corresponding values for UniProt Q9Y6X4 are -1.32 °C and 0.81 °C.
As to SWAP70 (UniProt Q9UH65), the melting temperature shift runs as follows: under setting [1], -0.55 °C; under setting [2], 0.339 °C.
The corresponding values for KIF2A (UniProt O00139) are -1.25 °C and -0.143 °C.
For TRAPPC8 (UniProt Q9Y2L5), in that order: -0.303 °C and 0.218 °C.
The corresponding values for ADSS (UniProt P30520) are -0.508 °C and 0.755 °C.
SQSTM1 (UniProt Q13501): the melting temperature shift is, setting by setting: under setting [1], -0.203 °C; under setting [2], -0.681 °C.
The corresponding values for GGA3 (UniProt Q9NZ52) are -2.11 °C and -0.573 °C.
Regarding UniProt Q86X95, under setting [1], the melting temperature shift was determined as 7.25 °C.
For the target MRPS16 (UniProt Q9Y3D3), the melting temperature shift is -0.497 °C under setting [1] and -0.864 °C under setting [2].
For the target ZNF217 (UniProt O75362), the melting temperature shift by setting is: under setting [1], -0.452 °C; under setting [2], -0.418 °C.
Regarding RPLP0 (UniProt P05388), the melting temperature shift is -0.451 °C under setting [1] and 1.33 °C under setting [2].
DNAJC21 (UniProt Q5F1R6): the melting temperature shift under setting [1] turned out to be 0.141 °C.
Same read-out and setting: as for CDCA3 (UniProt Q99618), the figure is -0.122 °C.
For UniProt P05120, the melting temperature shift was -0.873 °C under setting [1] and 0.702 °C under setting [2].
The corresponding values for UniProt Q16181 are -0.0892 °C and 0.101 °C.
For PITPNB (UniProt P48739), in that order: -0.562 °C and 0.274 °C.
For UniProt Q8WV22, in that order: -1.3 °C and 0.599 °C.
Consider PPIB (UniProt P23284), for which the melting temperature shift by setting is: under setting [1], 0.736 °C; under setting [2], 0.339 °C.
For the target MTFR1 (UniProt Q15390), the melting temperature shift under setting [1] came to 1.55 °C.
As for PNP (UniProt P00491), under setting [2], the melting temperature shift is -1.55 °C.
UniProt Q9BXT8: the melting temperature shift under setting [1] was determined as 1.1 °C.
In the case of XPOT (UniProt O43592), the melting temperature shift is -1.2 °C under setting [1] and -0.745 °C under setting [2].
Turning to UniProt P36406, the melting temperature shift under setting [2] was -2.62 °C.
As for BRIX1 (UniProt Q8TDN6), the melting temperature shift under setting [1] came out at 0.672 °C.
Turning to HNRNPD (UniProt Q14103), the melting temperature shift under setting [1] came out at 0.831 °C and the melting temperature shift under setting [2] was 0.0586 °C.
F11R (UniProt Q9Y624): the melting temperature shift under setting [1] came to 2.91 °C.
On the same count and under the same terms, as for UniProt Q9H0R3, the figure is 1.9 °C.
For B3GLCT (UniProt Q6Y288), the melting temperature shift reads like this: under setting [1], -1.22 °C; under setting [2], -0.807 °C.
The corresponding values for HACD2 (UniProt Q6Y1H2) are -0.0468 °C and -2.06 °C.
With NIT1 (UniProt Q86X76), the melting temperature shift under setting [2] was -5.13 °C.
Consider ANKRD28 (UniProt O15084), for which the melting temperature shift under setting [1] was 0.0916 °C and the melting temperature shift under setting [2] was found to be 0.709 °C.
As to PISD (UniProt Q9UG56), the melting temperature shift under setting [1] is 1.94 °C.
Take VRK1 (UniProt Q99986): the melting temperature shift is -0.0702 °C under setting [1] and -0.493 °C under setting [2].
Take PTEN (UniProt P60484): the melting temperature shift under setting [2] is 0.859 °C.
In the case of RPSA (UniProt P08865), the melting temperature shift under setting [1] is -0.0932 °C and the melting temperature shift under setting [2] was -0.639 °C.
The corresponding values for CNOT4 (UniProt O95628) are -1.4 °C and 0.597 °C.
For NSUN2 (UniProt Q08J23), in that order: 0.255 °C and 0.56 °C.
